Results reported in the supplement of paper PMC12889115.
This is one part of the list. Values are raw readings; no control value is given beside them.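 Primary screen: polymyxin B was added at a level permeabilizing Salmonella outer membranes while sparing inner membranes. DMSO wells, both with and without polymyxin B, established maximum growth. Plate-to-plate variation meant each plate was ranked on its own, and the lowest-OD600 compounds were selected as hits.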

System: Salmonella enterica serovar Typhimurium SL1344
Experiment: bacterial growth OD600 after 18 h with compound and polymyxin B; higher = more bacterial growth (less inhibition)
Details: 50 µM, Mueller-Hinton broth

SMILES | bacterial growth OD600 (polymyxin B 1 µg/mL) | bacterial growth OD600 (polymyxin B 0.75 µg/mL)
CN(C)C1(CNC(=O)c2ccc(OC3CCN(C(=O)C4CC4)CC3)cc2)CCCCC1 | 0.859 | 
CN(C)c1cccc(C(=O)NC2CC(=O)N(C3CCCCCC3)C2)c1 (centres undefined) | 0.958 | 
CCC1CCCCN1C(=O)CCC1(Cc2ccc3ccccc3c2)CCC(=O)N1 (centres undefined) |  | 0.875
Cc1cccn2c(CNCCc3ccncc3)c(C(=O)N3CCOCC3)nc12 | 1.01 | 
Cc1ccc(CN2CCC(CN(C)Cc3c(C)n(C)n(-c4ccccc4)c3=O)CC2)o1 | 1.14 | 
CCc1csc(CNC(=O)c2ccc(N(C)Cc3cnccn3)nc2)n1 |  | 0.778
COc1cccc(OCC2CCCN(C(=O)CCC3(Cc4ccccc4)CCC(=O)N3)C2)c1 (centres undefined) |  | 0.008
O=C(NCCCc1ccccn1)c1ccc(N2CCCOCC2)nc1 |  | 0.858
COc1cc2nc(N(C)C)c(CNCc3ccc(C(F)(F)F)cc3)cc2c(OC)c1OC |  | 0.899
CSCCNCc1c(C(=O)N2CCCCCCC2)nc2ccc(Cl)cn12 |  | 0.586
CCOC(=O)N1CCN(C(=O)CC2(c3cccc(C(F)(F)F)c3)CC(=O)N(C3CC3)C2=O)CC1 (centres undefined) |  | 0.798
Cc1cnccc1CN(C)C(=O)CC(c1cccc(O)c1)c1ccccc1Cl (centres undefined) | 0.012 | 
Cc1cc(C(=O)NCc2cccnc2N2CCN(c3ccccn3)CC2)no1 |  | 0.709
Cc1ccnc(N2CCC(C3CCN(Cc4cccnc4)CC3)C2)c1 (centres undefined) |  | 0.78
O=C(CCC1(Cc2ccc(Cl)cc2)CCC(=O)N1)NCc1nc2c(s1)CCCC2 (centres undefined) |  | 1.05
CC(C)CC(C)N1CCC(N2CCC(C(=O)NCc3cccnc3)CC2)CC1 (centres undefined) | 0.749 | 
COCCO[C@H]1[C@H](NC(=O)C(C)C)c2ccccc2C12CCN(Cc1cc(C)c(OC)cc1C)CC2 |  | 0.862
COc1ccc(-n2ncc(C(C)NC3CCN(Cc4ccccn4)CC3)c2C)cc1 (centres undefined) | 0.896 | 
COC(=O)c1ccccc1NC(=O)N1CCCC(C(=O)c2cccc(Cl)c2)C1 (centres undefined) | 0.8 | 

A portion of the results above, for reference:
SMILES | bacterial growth OD600 (polymyxin B 1 µg/mL) | bacterial growth OD600 (polymyxin B 0.75 µg/mL)
Cc1cnccc1CN(C)C(=O)CC(c1cccc(O)c1)c1ccccc1Cl (centres undefined) | 0.012 | 
Cc1cc(C(=O)NCc2cccnc2N2CCN(c3ccccn3)CC2)no1 |  | 0.709
Cc1ccnc(N2CCC(C3CCN(Cc4cccnc4)CC3)C2)c1 (centres undefined) |  | 0.78
O=C(CCC1(Cc2ccc(Cl)cc2)CCC(=O)N1)NCc1nc2c(s1)CCCC2 (centres undefined) |  | 1.05
CC(C)CC(C)N1CCC(N2CCC(C(=O)NCc3cccnc3)CC2)CC1 (centres undefined) | 0.749 | 
